Measurements published in publication PMC9277853.
Results are given in words; binding and its absence hold for the method and conditions named. Binding seen in cells or lysates may run through a third protein. These calls come from enrichment with a bait or labelling near it, and not all partners need be listed. Where a sequence is shown, tags or fusion partners need not be part of it.

Chains of the proteins cited; added tags and fusions are not shown.
UniProt Q8WYP5: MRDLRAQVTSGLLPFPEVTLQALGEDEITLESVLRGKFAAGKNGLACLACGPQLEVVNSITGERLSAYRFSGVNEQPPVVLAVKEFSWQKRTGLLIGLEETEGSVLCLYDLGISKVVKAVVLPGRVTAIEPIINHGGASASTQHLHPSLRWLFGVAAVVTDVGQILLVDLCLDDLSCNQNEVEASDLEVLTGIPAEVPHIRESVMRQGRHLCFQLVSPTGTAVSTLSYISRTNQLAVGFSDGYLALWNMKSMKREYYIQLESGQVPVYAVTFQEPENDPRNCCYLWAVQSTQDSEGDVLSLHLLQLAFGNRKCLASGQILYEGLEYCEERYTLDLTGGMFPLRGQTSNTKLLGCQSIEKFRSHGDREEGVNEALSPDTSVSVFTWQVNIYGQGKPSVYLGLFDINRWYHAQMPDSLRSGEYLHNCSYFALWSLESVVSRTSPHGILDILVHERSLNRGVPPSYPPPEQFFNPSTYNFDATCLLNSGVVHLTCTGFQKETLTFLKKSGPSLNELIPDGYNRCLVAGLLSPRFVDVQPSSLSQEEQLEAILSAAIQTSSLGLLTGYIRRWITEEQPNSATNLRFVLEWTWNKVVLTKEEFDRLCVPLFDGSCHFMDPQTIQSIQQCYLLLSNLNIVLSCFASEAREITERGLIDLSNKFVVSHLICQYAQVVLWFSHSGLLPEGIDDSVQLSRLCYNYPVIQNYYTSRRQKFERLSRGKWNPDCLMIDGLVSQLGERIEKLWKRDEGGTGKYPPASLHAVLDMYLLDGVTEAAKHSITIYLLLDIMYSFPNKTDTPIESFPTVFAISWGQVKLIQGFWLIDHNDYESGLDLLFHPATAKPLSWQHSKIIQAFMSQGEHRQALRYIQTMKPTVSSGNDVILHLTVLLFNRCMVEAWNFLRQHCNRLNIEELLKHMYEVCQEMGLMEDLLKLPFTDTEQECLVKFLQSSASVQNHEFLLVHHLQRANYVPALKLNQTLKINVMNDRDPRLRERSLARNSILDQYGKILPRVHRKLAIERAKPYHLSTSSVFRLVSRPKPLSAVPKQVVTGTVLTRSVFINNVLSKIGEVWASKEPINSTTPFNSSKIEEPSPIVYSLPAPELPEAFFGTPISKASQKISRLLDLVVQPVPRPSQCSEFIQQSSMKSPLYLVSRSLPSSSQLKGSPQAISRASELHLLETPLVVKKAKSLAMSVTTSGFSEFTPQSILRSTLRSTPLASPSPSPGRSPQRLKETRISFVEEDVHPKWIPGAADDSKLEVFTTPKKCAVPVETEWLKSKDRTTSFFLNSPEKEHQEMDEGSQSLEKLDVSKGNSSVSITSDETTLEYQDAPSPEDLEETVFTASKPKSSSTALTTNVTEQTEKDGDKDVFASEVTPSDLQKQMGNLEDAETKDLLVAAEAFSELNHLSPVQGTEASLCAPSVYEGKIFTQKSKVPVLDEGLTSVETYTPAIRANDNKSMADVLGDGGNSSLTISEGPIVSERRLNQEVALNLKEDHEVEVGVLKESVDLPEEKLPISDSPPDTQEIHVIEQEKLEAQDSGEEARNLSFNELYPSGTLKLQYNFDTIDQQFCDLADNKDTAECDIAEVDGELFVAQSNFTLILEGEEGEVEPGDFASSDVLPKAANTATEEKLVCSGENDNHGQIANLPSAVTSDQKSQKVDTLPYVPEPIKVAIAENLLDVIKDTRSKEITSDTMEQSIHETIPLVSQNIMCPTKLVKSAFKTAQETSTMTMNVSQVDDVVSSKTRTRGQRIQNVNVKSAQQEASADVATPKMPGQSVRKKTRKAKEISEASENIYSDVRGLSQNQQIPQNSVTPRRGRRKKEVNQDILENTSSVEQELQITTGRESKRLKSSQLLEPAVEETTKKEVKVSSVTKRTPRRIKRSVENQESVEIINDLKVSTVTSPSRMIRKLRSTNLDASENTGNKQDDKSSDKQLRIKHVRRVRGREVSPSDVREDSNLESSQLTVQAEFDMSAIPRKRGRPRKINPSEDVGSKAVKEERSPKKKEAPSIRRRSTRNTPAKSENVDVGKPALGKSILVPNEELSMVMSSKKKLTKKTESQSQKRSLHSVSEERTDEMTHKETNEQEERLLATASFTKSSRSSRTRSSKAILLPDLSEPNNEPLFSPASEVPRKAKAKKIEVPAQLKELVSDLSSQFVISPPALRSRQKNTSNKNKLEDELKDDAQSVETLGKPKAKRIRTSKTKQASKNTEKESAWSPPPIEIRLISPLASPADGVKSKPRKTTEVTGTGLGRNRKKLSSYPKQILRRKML
UniProt P51114: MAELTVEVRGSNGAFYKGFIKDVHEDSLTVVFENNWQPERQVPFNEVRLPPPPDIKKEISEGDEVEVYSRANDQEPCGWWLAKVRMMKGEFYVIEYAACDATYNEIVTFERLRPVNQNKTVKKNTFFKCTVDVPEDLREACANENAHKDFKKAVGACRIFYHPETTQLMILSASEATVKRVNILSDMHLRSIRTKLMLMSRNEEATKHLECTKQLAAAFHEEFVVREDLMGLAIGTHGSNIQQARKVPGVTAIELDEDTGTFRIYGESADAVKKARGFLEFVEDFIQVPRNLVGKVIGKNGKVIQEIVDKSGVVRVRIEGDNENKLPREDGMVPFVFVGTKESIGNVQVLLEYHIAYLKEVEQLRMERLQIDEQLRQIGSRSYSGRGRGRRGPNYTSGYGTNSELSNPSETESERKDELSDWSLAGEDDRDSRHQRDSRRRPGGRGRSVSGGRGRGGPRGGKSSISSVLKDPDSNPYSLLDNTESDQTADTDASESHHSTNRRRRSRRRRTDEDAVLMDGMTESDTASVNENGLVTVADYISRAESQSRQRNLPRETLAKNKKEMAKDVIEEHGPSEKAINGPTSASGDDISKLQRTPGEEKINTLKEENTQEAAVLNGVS
UniProt P28482: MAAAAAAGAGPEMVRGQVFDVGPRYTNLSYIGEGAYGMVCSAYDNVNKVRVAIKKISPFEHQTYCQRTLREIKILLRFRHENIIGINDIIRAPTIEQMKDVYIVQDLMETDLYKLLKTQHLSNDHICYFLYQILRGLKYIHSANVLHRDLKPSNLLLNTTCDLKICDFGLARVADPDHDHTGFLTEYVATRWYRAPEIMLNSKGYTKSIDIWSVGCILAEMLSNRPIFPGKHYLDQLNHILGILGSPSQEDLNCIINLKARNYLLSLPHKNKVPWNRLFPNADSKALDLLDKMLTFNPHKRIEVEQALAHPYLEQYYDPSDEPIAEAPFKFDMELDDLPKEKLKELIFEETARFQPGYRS
UniProt P67775: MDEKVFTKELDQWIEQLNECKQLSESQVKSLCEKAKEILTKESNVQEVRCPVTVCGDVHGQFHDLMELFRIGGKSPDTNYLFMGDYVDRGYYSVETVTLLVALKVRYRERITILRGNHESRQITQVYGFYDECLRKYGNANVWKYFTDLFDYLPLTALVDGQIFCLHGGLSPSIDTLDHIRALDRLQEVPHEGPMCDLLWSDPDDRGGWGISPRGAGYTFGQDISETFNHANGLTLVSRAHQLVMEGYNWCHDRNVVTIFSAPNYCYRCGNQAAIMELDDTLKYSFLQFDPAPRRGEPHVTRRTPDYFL
UniProt Q06609: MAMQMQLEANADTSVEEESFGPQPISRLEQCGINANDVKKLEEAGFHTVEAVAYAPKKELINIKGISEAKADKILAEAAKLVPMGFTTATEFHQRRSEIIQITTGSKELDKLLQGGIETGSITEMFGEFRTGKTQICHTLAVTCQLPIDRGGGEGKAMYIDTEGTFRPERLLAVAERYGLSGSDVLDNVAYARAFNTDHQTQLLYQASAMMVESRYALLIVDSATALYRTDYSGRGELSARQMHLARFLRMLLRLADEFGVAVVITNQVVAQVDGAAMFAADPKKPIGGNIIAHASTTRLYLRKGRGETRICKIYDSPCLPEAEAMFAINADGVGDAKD
UniProt Q12888: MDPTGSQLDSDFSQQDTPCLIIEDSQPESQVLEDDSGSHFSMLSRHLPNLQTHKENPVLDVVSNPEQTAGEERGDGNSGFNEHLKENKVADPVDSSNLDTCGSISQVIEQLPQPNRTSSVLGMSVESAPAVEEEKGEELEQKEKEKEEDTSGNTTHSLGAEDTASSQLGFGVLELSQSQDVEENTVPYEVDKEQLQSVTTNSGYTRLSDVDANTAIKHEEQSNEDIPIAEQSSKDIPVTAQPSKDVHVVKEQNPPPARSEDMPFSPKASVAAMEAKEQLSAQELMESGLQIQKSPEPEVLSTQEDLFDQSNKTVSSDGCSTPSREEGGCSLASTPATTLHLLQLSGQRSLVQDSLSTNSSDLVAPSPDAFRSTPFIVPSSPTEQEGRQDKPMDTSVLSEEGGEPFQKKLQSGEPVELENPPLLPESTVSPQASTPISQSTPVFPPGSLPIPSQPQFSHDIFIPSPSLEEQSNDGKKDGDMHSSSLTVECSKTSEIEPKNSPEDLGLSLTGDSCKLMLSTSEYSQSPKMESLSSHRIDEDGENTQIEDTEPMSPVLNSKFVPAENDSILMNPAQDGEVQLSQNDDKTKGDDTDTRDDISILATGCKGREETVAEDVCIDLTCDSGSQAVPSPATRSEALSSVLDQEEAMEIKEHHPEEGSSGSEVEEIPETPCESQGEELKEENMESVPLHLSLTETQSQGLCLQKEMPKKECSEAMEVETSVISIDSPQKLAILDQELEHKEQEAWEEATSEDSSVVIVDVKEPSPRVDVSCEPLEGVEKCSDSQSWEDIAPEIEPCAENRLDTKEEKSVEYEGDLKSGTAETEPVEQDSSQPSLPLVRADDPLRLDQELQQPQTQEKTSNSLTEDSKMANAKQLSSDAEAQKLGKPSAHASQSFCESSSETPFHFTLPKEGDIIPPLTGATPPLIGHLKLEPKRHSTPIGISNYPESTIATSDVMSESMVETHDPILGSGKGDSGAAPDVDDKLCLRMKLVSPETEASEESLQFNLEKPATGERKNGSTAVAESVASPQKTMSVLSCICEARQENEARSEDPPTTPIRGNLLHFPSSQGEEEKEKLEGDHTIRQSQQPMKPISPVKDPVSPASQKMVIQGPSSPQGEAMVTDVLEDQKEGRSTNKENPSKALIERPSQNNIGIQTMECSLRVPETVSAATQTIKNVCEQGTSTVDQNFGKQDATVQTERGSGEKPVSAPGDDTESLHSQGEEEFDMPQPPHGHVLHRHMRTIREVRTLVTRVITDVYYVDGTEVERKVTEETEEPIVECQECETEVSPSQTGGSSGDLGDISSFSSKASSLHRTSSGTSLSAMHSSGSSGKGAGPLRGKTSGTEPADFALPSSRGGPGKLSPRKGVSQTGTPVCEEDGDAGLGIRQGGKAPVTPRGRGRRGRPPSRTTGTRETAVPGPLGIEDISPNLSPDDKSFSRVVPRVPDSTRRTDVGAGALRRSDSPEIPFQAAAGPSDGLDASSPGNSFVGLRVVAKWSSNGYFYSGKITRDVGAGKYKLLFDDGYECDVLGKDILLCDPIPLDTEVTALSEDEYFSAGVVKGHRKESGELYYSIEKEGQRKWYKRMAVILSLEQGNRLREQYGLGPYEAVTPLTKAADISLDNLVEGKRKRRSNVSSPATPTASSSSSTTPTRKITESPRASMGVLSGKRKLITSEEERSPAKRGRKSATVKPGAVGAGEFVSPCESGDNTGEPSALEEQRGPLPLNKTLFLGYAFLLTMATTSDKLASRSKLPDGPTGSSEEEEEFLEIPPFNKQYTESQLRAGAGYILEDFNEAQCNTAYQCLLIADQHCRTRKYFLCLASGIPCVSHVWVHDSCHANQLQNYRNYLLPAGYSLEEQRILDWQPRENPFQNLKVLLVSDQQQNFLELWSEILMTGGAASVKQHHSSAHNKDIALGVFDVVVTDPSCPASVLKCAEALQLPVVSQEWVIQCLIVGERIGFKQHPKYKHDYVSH
UniProt Q9BQA1: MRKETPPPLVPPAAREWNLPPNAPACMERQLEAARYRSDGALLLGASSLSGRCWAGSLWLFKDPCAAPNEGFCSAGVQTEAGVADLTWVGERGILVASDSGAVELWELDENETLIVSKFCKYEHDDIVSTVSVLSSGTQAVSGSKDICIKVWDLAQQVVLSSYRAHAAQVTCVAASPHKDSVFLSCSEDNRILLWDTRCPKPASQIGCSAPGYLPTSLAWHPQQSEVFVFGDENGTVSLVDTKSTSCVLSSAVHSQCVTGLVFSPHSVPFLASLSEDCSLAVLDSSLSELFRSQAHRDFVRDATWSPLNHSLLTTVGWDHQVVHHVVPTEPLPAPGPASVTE
UniProt P31946: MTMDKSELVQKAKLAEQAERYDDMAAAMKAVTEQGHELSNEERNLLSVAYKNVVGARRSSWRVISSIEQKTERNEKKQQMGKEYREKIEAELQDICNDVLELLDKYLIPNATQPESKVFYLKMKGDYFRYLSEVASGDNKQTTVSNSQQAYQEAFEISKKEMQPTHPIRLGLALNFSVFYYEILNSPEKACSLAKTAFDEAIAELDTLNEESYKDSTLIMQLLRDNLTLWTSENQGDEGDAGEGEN

Target: T1, Flag-HA-RNF8 (UniProt O76064)
T1 sequence: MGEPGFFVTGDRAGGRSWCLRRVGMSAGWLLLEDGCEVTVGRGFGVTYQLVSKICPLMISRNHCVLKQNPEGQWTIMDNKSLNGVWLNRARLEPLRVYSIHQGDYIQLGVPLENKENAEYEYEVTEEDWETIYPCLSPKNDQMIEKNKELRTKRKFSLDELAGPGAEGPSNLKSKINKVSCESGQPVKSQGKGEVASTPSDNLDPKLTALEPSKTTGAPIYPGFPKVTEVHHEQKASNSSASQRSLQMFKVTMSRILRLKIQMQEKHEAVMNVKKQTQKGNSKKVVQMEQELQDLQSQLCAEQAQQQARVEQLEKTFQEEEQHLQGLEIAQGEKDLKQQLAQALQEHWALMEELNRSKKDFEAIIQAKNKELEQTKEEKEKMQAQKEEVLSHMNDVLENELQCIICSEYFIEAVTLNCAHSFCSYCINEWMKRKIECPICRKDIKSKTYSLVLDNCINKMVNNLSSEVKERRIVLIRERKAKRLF
Assay: affinity purification with mass spectrometry; two-way screen: cells transfected with Flag-HA-RNF8, IP on anti-Flag-M2 beads, eluate IP on anti-HA beads; in parallel IP with an anti-RNF8 antibody; SDS-PAGE, silver staining, bands to LC-MS; the two protein sets intersected (218 proteins)

Substance	binding
ACTL6A (from UniProt O96019 1-429)	binds
AHCTF1 (from UniProt Q8WYP5 1-2266)	binds
APEX1 (from UniProt P27695 1-318)	binds
ASCC3 (from UniProt Q8N3C0 1-2202)	binds
CDK9 (from UniProt P50750 1-372)	binds
CHD4 (from UniProt Q14839 1-1912)	binds
COPS5 (from UniProt Q92905 1-334)	binds
DDB1 (from UniProt Q16531 1-1140)	binds
ENO1 (from UniProt P06733 1-434)	binds
EWSR1 (from UniProt Q01844 1-656)	binds
FLNA (from UniProt P21333 1-2647)	binds
FXR1 (from UniProt P51114 1-621)	binds
HCFC1	binds
HNRNPK (from UniProt P61978 1-463)	binds
MACF1 (from UniProt Q9UPN3 1-7388)	binds
MAPK1 (from UniProt P28482 1-360)	binds
MEF2C (from UniProt Q06413 1-473)	binds

Substance	binding
MORF4L1 (from UniProt Q9UBU8 1-362)	binds
MORF4L2 (from UniProt Q15014 1-288)	binds
NPM1 (from UniProt P06748 1-294)	binds
PARP1 (from UniProt P09874 1-1014)	binds
POLR1A (from UniProt O95602 1-1720)	binds
PRMT5 (from UniProt O14744 1-637)	binds
PSMC2 (from UniProt P35998 1-433)	binds
PYCR	binds
RNF2 (from UniProt Q99496 1-336)	binds
RUVBL1 (from UniProt Q9Y265 1-456)	binds
SMARCA2 (from UniProt P51531 1-1590)	binds
SND1 (from UniProt Q7KZF4 1-910)	binds
SRSF1 (from UniProt Q07955 1-248)	binds
XRCC5 (from UniProt P13010 1-732)	binds
XRCC6 (from UniProt P12956 1-609)	binds
YBX1 (endogenous) (from UniProt P67809 1-324)	binds

Continued, values first:

binding	Substance
binds	DAXX (from UniProt Q9UER7 1-740)
binds	DDX3X (from UniProt O00571 1-662)
binds	HDAC1 (from UniProt Q13547 1-482)
binds	NUP98 (from UniProt P52948 1-880)
binds	PBRM1 (from UniProt Q86U86 1-1689)
binds	PCNA (from UniProt P12004 1-261)
binds	PKM (from UniProt P14618 1-531)
binds	PPP2CA (from UniProt P67775 1-309)
binds	RAD51 (from UniProt Q06609 1-339)
binds	RBBP4 (from UniProt Q09028 1-425)
binds	TP53 (from UniProt P04637 1-393)
binds	TP53BP1 (from UniProt Q12888 1-1972)
binds	WDR77 (from UniProt Q9BQA1 1-342)
binds	YWHAB (from UniProt P31946 1-246)
